Laboratory results taken from PMC7819943, “Rice protein-binding microarrays: a tool to detect cis-acting elements near promoter regions in rice”.
The list shows a part of the results.

Protein sequences, listed by entry. Tags and fused reporters are not part of them.
UniProt Q0JBA9, entry or part of it: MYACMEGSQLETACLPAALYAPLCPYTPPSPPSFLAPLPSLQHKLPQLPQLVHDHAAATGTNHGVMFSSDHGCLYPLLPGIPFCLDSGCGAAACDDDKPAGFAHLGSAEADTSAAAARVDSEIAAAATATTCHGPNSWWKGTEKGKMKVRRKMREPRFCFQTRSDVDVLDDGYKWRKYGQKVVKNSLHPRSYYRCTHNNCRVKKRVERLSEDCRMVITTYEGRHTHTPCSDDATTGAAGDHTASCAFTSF

Target: OsWRKY34 (Oryza sativa, UniProt Q0JBA9 1-250)
Test: protein-binding microarray (RPBM); PBS, 2% BSA, 51.3 ng/ul salmon testes DNA, 50 uM zinc acetate, 200 nM TF, 25 C, 1 h; high values mean tight binding
Details: protein: recombinant; tags: N-terminal polyhistidine and DsRed monomer fusion (pET32a); label: CyDye5-dUTP incorporated in the synthesized complementary strand; 3' TTTTT single-stranded linker to array surface; dsDNA, one strand shown
How it was run: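 The binding signal is fluorescence intensity per array feature (arbitrary units). Readings came from an Axon 4000B scanner after a washed, 2% BSA-blocked, double-stranded custom Agilent array had been incubated for 1 h at 25 °C with 200 nM protein and 50 µM zinc acetate. The protein was a Ni–NTA-purified transcription factor fused N-terminally to polyhistidine and DsRed, expressed in E. coli BL21-CodonPlus.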

Row | Sequence | binding signal
1 | TCGAGCTGGGTGGGGTTTTTATATGGGAGGAGAGGCCGCGCGGAGTCACCTAGTGCAG | 16800 fluorescence intensity (a.u.)
2 | AAAGTTTTTCACCACCACAATGCGCCACGTCACCAGAAAACGGAGTCACCTAGTGCAG | 8280 fluorescence intensity (a.u.)
3 | GAGTGGTGGAGGGTTGTGATTGGATGAGTAGTGGAGGTAGCGGAGTCACCTAGTGCAG | 8760 fluorescence intensity (a.u.)
4 | ACTGTGTCAAAGCCTTTTCTCTACTTCTGAGGGAACTATTCGGAGTCACCTAGTGCAG | 8230 fluorescence intensity (a.u.)
5 | TACTAGCTGGTCTGGCCCTACTCAGTTTTACGTGTACCTACGGAGTCACCTAGTGCAG | 9490 fluorescence intensity (a.u.)
6 | TCATTTCGTGCGCGGGGAGGGAGGGGAAAAAAACCCTAAACGGAGTCACCTAGTGCAG | 9820 fluorescence intensity (a.u.)
7 | TGTTACTGAAGTCCAATCATTTTTGCTTCTTCACCAAATTCGGAGTCACCTAGTGCAG | 10000 fluorescence intensity (a.u.)
8 | ATGTTTTTGCTTCCGGAACGGACCGTGCGTTACGTTTTCTCGGAGTCACCTAGTGCAG | 12100 fluorescence intensity (a.u.)
9 | GCTATCTTTTCGCTGTTGCAATGAAATTTCCTGATCACATCGGAGTCACCTAGTGCAG | 12600 fluorescence intensity (a.u.)
10 | TAAGACGAATGGTCAAACATGTGAGAAAAAGTCAACGGCGCGGAGTCACCTAGTGCAG | 13100 fluorescence intensity (a.u.)
11 | CTATCCATATCCGACCCGATTCTAATTATCAATCACCTATCGGAGTCACCTAGTGCAG | 9000 fluorescence intensity (a.u.)
12 | CCTAACCTGATTGGCTAAAGTTTTCCTTTCTTTGTTTTTTCGGAGTCACCTAGTGCAG | 10300 fluorescence intensity (a.u.)
13 | GGCCTAAAACATAGGACGATGGTCAGAGTTATATTTTTCACGGAGTCACCTAGTGCAG | 8040 fluorescence intensity (a.u.)
14 | GCTTGTTTTCGAAAGTTAGGGGATGGGTCGTACCCGGTTTCGGAGTCACCTAGTGCAG | 9350 fluorescence intensity (a.u.)
15 | TCGAAATGTTTGACGCCGTTGACTTTTTAAGTATATGTTTCGGAGTCACCTAGTGCAG | 29200 fluorescence intensity (a.u.)
16 | TTCAATTTTTCCGTCGCATCGTTCCAATTTCAACCAAACTCGGAGTCACCTAGTGCAG | 8460 fluorescence intensity (a.u.)
17 | GTCACCATCCACCGTTTATTCGCAGCTCGTTTTATCACTACGGAGTCACCTAGTGCAG | 14800 fluorescence intensity (a.u.)
18 | CTGCCATGCCCGAGCTCGCGTCCGGTCGCCGCCGTAGTCACGGAGTCACCTAGTGCAG | 8850 fluorescence intensity (a.u.)
19 | AATCACGGCGGGTCAAGCACAAACCAGGTGTTGACCGGCACGGAGTCACCTAGTGCAG | 12500 fluorescence intensity (a.u.)
20 | GCATCGACCGCGCGCGTATACGTTAACGCTCACCTTTGTTCGGAGTCACCTAGTGCAG | 9420 fluorescence intensity (a.u.)
21 | AATGCTACCCGTATCTGTATTGATGCTTTATGCTCTCATCCGGAGTCACCTAGTGCAG | 8120 fluorescence intensity (a.u.)

Some values from the results shown:
CTATCCATATCCGACCCGATTCTAATTATCAATCACCTATCGGAGTCACCTAGTGCAG | binding signal: 9000 fluorescence intensity (a.u.)
GAGTGGTGGAGGGTTGTGATTGGATGAGTAGTGGAGGTAGCGGAGTCACCTAGTGCAG | binding signal: 8760 fluorescence intensity (a.u.)
ATGTTTTTGCTTCCGGAACGGACCGTGCGTTACGTTTTCTCGGAGTCACCTAGTGCAG | binding signal: 12100 fluorescence intensity (a.u.)

Next results:

Row | Sequence | binding signal
22 | AGTACACGGTTGTTTATATTGCGCCACTCTCGCTGACTCGCGGAGTCACCTAGTGCAG | 8800 fluorescence intensity (a.u.)
23 | GATTTTGACTTTTTACTTGCACTGTTTGACCATTCATATTCGGAGTCACCTAGTGCAG | 16300 fluorescence intensity (a.u.)
24 | AATGGTTTGGTTGTTGTTTTTTTTAAAAAAAACTTTCAGGCGGAGTCACCTAGTGCAG | 8170 fluorescence intensity (a.u.)
25 | TTAAACGGTCATTCTTGTGTTTTTCCTGTATTTTCTAATCCGGAGTCACCTAGTGCAG | 9220 fluorescence intensity (a.u.)
26 | CAAGGCCAACCGTATCCCATTACAACATTTTTCGCCGTCGCGGAGTCACCTAGTGCAG | 8380 fluorescence intensity (a.u.)
27 | ATATCTGTATTTTTGGCGCCAAACATGGTTTACCATTCTCCGGAGTCACCTAGTGCAG | 8420 fluorescence intensity (a.u.)
28 | CTCGCCTCGCCTCGCCTCCGGTCCGTCCCCGTCGCCGATGCGGAGTCACCTAGTGCAG | 8480 fluorescence intensity (a.u.)
29 | GGGGATTGGTTTGGTGTGGGTGTTTTGTGTGGGGATTGATCGGAGTCACCTAGTGCAG | 28100 fluorescence intensity (a.u.)
30 | GAGTTCGTAGCTTTTAGGGTCATGCGGGGTTCTACCGTTGCGGAGTCACCTAGTGCAG | 10500 fluorescence intensity (a.u.)
31 | CATTCAATGTGTTCTGTGTTAGATAACCTTATGCCCCACGCGGAGTCACCTAGTGCAG | 9170 fluorescence intensity (a.u.)
32 | TCAAAACTGAATTATCTTTGCGTGTGTGTTTGATCTATTTCGGAGTCACCTAGTGCAG | 8290 fluorescence intensity (a.u.)
33 | ATGTACTAACTCCACGTTTTAATGCATGCAATATTTCTTTCGGAGTCACCTAGTGCAG | 8410 fluorescence intensity (a.u.)
34 | TTCTCCACACCCTGATTGTTTCTAGATTTTTTTTTATTCTCGGAGTCACCTAGTGCAG | 8830 fluorescence intensity (a.u.)
35 | ACGACTTTATCAATTGTTCTACAATACGCCATTGAGCTTCCGGAGTCACCTAGTGCAG | 9190 fluorescence intensity (a.u.)
36 | CGGGCCATCCAGAAGTGACCGAAATGTGGGAGGGGTTTTCCGGAGTCACCTAGTGCAG | 12500 fluorescence intensity (a.u.)
37 | TCCCCACCTCCCCAATCCCTGCCCCAGTTGAGCGTTCCTTCGGAGTCACCTAGTGCAG | 8910 fluorescence intensity (a.u.)
38 | CACCGTGCCATCTCTCTCTCTTTTTTACTTCTCGGGCTTTCGGAGTCACCTAGTGCAG | 14100 fluorescence intensity (a.u.)
39 | ATGATTTGATTGGTCAGGACATTATTATCTTGGTCGTACTCGGAGTCACCTAGTGCAG | 11100 fluorescence intensity (a.u.)
40 | ACAGGCACCTCGCTGTCAACGGGTACGCCACCTACCACTGCGGAGTCACCTAGTGCAG | 8130 fluorescence intensity (a.u.)
41 | AACACTCCAATGCCAACAACACAACCTGCTCATATCATAACGGAGTCACCTAGTGCAG | 12300 fluorescence intensity (a.u.)
42 | GATTGTTGGCCCCACATTTTTTGTGTCACTTACATGTGGGCGGAGTCACCTAGTGCAG | 8620 fluorescence intensity (a.u.)
